According to US20110318270A1, “DRUG IDENTIFICATION PROTOCOL FOR TYPE 2 DIABETES BASED ON GENE EXPRESSION SIGNATURES” (VERVA PHARMACEUTICALS LTD, priority 2009, published 2011):

Test system: Diet-induced obese (DIO) mice
Assay: Insulin sensitising effects of CAIs in diet-induced obese mice
Format: in vivo
Conditions: 50 mg/kg/day for 14 days, intraperitoneal glucose tolerance test
Description: Diet-induced obese (DIO) mice were treated with each CAI at 50 mg/kg/day for 14 days.

NS(=O)(=O)c1cc(C(=O)O)c(NCc2ccco2)cc1Cl [furosemide]
reduction in the incremental area under the glucose curve (AUC) compared with vehicle-treated animals / glucose disposal: did not affect glucose disposal
